Measurements published in PMC3245278.
Results are given in words; binding and its absence hold for the method and conditions named. Binding seen in cells or lysates may run through a third protein. Some binding calls cover weakened binding; strength is not graded here.

By UniProt entry, the sequences of proteins in these tests, tags left out. Where a name states a change or a piece, a line headed by the entry shows the natural chain unless it says otherwise.
UniProt Q01094: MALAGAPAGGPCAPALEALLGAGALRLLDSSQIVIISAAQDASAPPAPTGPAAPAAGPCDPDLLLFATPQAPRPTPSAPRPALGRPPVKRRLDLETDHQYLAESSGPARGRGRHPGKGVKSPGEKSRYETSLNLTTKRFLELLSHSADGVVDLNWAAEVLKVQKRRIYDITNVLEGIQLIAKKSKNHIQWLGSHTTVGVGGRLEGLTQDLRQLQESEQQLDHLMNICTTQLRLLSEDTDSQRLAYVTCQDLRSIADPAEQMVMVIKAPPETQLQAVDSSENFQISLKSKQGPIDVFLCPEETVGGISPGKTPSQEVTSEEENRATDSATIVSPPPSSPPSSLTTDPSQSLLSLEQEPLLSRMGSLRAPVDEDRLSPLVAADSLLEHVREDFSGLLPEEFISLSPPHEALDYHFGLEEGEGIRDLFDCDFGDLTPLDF
UniProt P03372: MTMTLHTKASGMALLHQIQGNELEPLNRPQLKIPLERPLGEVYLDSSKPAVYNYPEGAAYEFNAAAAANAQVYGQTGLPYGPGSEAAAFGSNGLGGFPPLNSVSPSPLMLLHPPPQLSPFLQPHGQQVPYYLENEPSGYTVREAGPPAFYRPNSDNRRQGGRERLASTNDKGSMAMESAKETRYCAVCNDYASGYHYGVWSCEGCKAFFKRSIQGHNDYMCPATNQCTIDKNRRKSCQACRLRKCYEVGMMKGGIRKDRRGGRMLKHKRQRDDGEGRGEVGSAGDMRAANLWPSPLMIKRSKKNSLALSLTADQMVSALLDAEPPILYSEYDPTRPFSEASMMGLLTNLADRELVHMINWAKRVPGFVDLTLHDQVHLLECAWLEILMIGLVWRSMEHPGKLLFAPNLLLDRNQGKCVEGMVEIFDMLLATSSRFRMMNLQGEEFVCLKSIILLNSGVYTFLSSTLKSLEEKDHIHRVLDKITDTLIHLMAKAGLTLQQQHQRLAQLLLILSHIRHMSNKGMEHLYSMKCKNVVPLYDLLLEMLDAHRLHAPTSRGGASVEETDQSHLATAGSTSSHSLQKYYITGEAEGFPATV

Target: E2F Transcription Factor 1 (human (endogenous in MCF7)) (UniProt Q01094)
Test: co-IP; endogenous proteins in MCF7 whole cell lysate (NENT buffer, protease inhibitors); 2 mg lysate with 6 µg anti-E2F1 or anti-ERα antibody or normal rabbit IgG overnight at 4°C, protein G/agarose, 3 washes with NENT buffer, western blot

- binding: binds
Substance: Estrogen receptor alpha (from UniProt P03372 1-595)
